Tested on: NO bond at the 3′ position of a polynucleotide
Assay: Octet/CE cyclic extension assay (SBB extension cycles, extended primer length read by capillary electrophoresis)
Assay type: biochemical
Text: The polynucleotides were Cy3-primers hybridized to biotinylated template DNA which were in turn bound to streptavidin coated tips of the Octet system. The Octet system move a set of 8 tips between the wells of a heated 96-well plate, for a set number of SBB extension cycles. Each cycle included an IMG step under conditions at which fluorescent nucleotides of ternary complexes could be imaged, an RTN step in which amineoxy terminated nucleotides were incorporated at the 3′ end of the primer by a polymerase, a wash step that removes excess nucleotides, and a CLV step that exposes the amineoxy terminated extended primer to a deblocking agent or candidate. The length of extended polynucleotides were then detected by capillary electrophoresis (CE), as described in US Patent Pub. No. 2019/0241945, the content of which is incorporated herein.
Polynucleotide sequence was synthesized using the Octet/CE method where non-extendable polynucleotides having a 3′ amineoxy group were used to reversibly stop extension, as shown in the workflow scheme of FIG. 1A.
CDP was formulated with a number of different buffers at different pH and various different amines as solubility enhancers. 47 formulations were made and tested. In general, CDP was dissolved in water and loaded onto Dowex 50™ cation exchange resin, and incubated for a few minutes. […]

| SMILES | DNA damage of product (cyclic extension, compared to SOP) | degradation of the extended polynucleotide (pH 5.2) |
| --- | --- | --- |
| O=C(P(=O)(O)O)P(=O)(O)O [CDP, Carbonyl diphosphonate] | no DNA damage | – |
| O=N[O-].[Na+] [NaNO2, sodium nitrite, reference compound] | – | degradation |
